From publication PMC12431657, “Discovery and mechanistic insights of dibenzoylmethane as a broad spectrum inhibitor of coronavirus” (PLOS Pathogens, 2025) come the findings set out here.

This test deals with HCoV-OC43. Further details: species or system RD; HTS, protection from HCoV-OC43 induced cell death, luminescent cell viability (CellCounting-Lite 2.0), inhibition rate. The note with it: 24 h post infection, 1 h compound pre-incubation, 10 µM, inhibitor.

SMILES strings stand for the structures. Where a name gives a salt, the structure may show the parent alone. Read-outs that look alike come from different tables or passages of the source. Out of some 3,300 compounds screened, about 60 (2%) showed an effect of 50% or more. Some of the results follow. Numbered stars: 1 amine (or outer) side, 2 acyl side, 3 side chain; on linkers, the order of the positions; unused ones are H or OH. Bridge positions count the residues as written; N and C are the ends. Square brackets hold non-standard residues; d marks the D form. Peptide text beside a SMILES is read from it. X2 = CC(C)CCCCCCCCC[C@H](CC(=O)[*:1])O[*:2]

`COC(=O)[C@@]1(C)CC[C@]2(C(=O)O)CC[C@]3(C)C(=CC[C@@H]4[C@@]5(C)C[C@H](O)[C@H](O)[C@@](C)(CO)[C@@H]5CC[C@]43C)[C@@H]2C1` [Phytolaccagenin]: the “OC43 Inhibition rate” value was found to be 2.8%. As to `O=C(CCCCCCCCc1ccc(O)cc1)c1c(O)cccc1O` [Malabaricone B], the “OC43 Inhibition rate” value amounted to 54%. The same measure, in the same setting: the figure for `OC[C@H]1O[C@H](Oc2ccc(O)cc2)[C@H](O)[C@@H](O)[C@@H]1O` [α-Arbutin] is -1.8%; for `O=Cc1ccc(O)cc1` [p-Hydroxybenzaldehyde] it is 2.7%.

On to `N[C@@H](Cc1ccc(O)c(I)c1)C(=O)O` [H-Tyr(3-I)-OH], for which the “OC43 Inhibition rate” value came to 5.6%. The same measure, in the same setting: to `O=C(O)[C@H]1O[C@@H](Oc2cc3oc(-c4ccccc4)cc(=O)c3c(O)c2O)[C@H](O)[C@@H](O)[C@@H]1O` [Baicalin] belongs 1.8%. Same read-out and setting: to `CC(C)CCCCCCCCC[C@@H]1CC(=O)N[C@@H](CCC(=O)O)C(=O)N[C@@H](CC(C)C)C(=O)N[C@H](CC(C)C)C(=O)N[C@@H](C(C)C)C(=O)N[C@@H](CC(=O)O)C(=O)N[C@H](CC(C)C)C(=O)N[C@@H](CC(C)C)C(=O)O1` [Surfactin] (EL[dL]VD[dL]L; linker N-C via X2) belongs 0.1%; to `C[C@H](CCC(=O)NCCS(=O)(=O)O)[C@H]1CC[C@H]2[C@@H]3CC[C@@H]4C[C@H](O)CC[C@]4(C)[C@H]3CC[C@]12C` [Taurolithocholic acid (sodium salt)], -0.7%.

As for `Cc1cc(=O)oc2c(O)c(O)ccc12` [4-Methyldaphnetin], the “OC43 Inhibition rate” value worked out at 2.8%.

In the case of `C/C=C/C=C/C(=O)O` [Potassium sorbate], the “OC43 Inhibition rate” value (OC43 Inhibition rate, 24 h) was found to be 1.3%.

`COc1ccc(CCNC(=O)/C=C/c2ccc(O)c(O)c2)cc1` [N-Caffeoyl O-methyltyramine]: the “OC43 Inhibition rate” value was 4%.

`COc1cc(C(=O)O)cc(OC)c1OC` [3,4,5-Trimethoxybenzoic acid]: the “OC43 Inhibition rate” value is given as -2.1%. As for `CC(C)CCC[C@@H](C)[C@H]1CC[C@H]2[C@@H]3CC[C@H]4C[C@@H](O)CC[C@]4(C)[C@H]3CC[C@]12C` [5α-Cholestan-3β-ol], the “OC43 Inhibition rate” value was -0.2%.

On to `CC(=O)c1c(O)cc(O)cc1O` [Phloracetophenone], for which the “OC43 Inhibition rate” value is recorded as -1%. Same read-out and setting: the figure for `CC1=C(CCC(=O)O)c2cc3nc(cc4[nH]c(cc5[nH]c(cc1n2)c(C)c5CCC(=O)O)c(CCC(=O)O)c4C)C(CCC(=O)O)=C3C` [Coproporphyrin III] is 24.8%; for `CC1(C)[C@@H](O)CC[C@]2(C)[C@H]3C(=O)C=C4[C@H]5C[C@@](C)(C(=O)O)CC[C@]5(C)CC[C@@]4(C)[C@]3(C)CC[C@@H]12` [18α-Glycyrrhetinic acid] it is 2.6%. On the same count and under the same terms, to `O=C(O)[C@@H](O)CO` [L-Glyceric acid (sodium)] belongs 0.3%. The same measure, in the same setting: the figure for `CCC(C)CC(=O)O` (centres unmarked) [3-Methylvaleric Acid] is -0.4%; for `CC(=O)O[C@@H](CC=C(C)C)C1=CC(=O)c2c(O)ccc(O)c2C1=O` [Acetylalkannin] it is 4.1%; for `CC(/C=C/C(=O)NO)=C\[C@@H](C)C(=O)c1ccc(N(C)C)cc1` [Trichostatin A] it is -3.1%. As for `O=c1ccc2ccc(O[C@@H]3O[C@H](CO)[C@@H](O)[C@H](O)[C@H]3O)c(O)c2o1` [Daphnin], the “OC43 Inhibition rate” value turned out to be 1.4%. `O=C(O)[C@H]1O[C@@H](Oc2cc(O)c3c(=O)cc(-c4ccc(O)c(O)c4)oc3c2)[C@H](O)[C@@H](O)[C@@H]1O` [Luteolin 7-O-glucuronide]: the “OC43 Inhibition rate” value stood at 0.8%. The same measure, in the same setting: the figure for `O=C(O)CNC(=O)c1ccco1` [2-Furoylglycine] is 1.9%.

In the case of `CC(=O)[C@H]1CC[C@H]2[C@@H]3CC=C4C[C@@H](O)CC[C@]4(C)[C@H]3CC[C@]12C` [Pregnenolone], the “OC43 Inhibition rate” value came out at 1.3%. On the same count and under the same terms, the figure for `COc1ccc(-c2cc(=O)c3c(OC)cc(OC)c(OC)c3o2)cc1OC` [Isosinensetin] is 0.6%; for `C[C@@H](O)[C@H](N)C(=O)O` (racemic) [DL-Threonine] it is -2.5%. Same read-out and setting: to `Oc1cc2c(cc1O)[C@@H]1c3ccc(O)c(O)c3OC[C@]1(O)C2` [Hematoxylin] belongs 11.1%; to `COc1cc(O)c2c(=O)cc(-c3ccc(O)cc3)oc2c1` [Genkwanin], 0.4%. `O=c1ccn([C@@H]2O[C@H](COP(=O)(O)OP(=O)(O)OP(=O)(O)O)[C@@H](O)[C@H]2O)c(=O)[nH]1` [Uridine triphosphate (trisodium salt)]: the “OC43 Inhibition rate” value is reported as -1.3%. The same measure, in the same setting: to `Cc1cccc2c3c(ccc12)C(=O)C(C(C)CO)=C(O)C3=O` (centres unmarked) [Danshenxinkun A] belongs -1.6%. In the case of `COc1cc2c(cc1OC)[C@@H](Cc1ccc(O)c(Oc3cc4c(cc3OC)CCN(C)[C@@H]4Cc3ccc(O)cc3)c1)N(C)CC2` [Liensinine], for the setting “OC43 Inhibition rate, 24 h”, the “OC43 Inhibition rate” value is reported as 54.6%. On to `C[C@@H]1O[C@@H](O[C@H]2[C@H](OC(=O)[C@]34CCC(C)(C)C[C@H]3C3=CC[C@@H]5[C@@]6(C)C[C@H](O)[C@H](O[C@@H]7O[C@H](CO)[C@@H](O)[C@H](O)[C@H]7O)C(CO)(CO)[C@@H]6CC[C@@]5(C)[C@]3(C)C[C@H]4O)OC[C@H](O)[C@@H]2O)[C@H](O)[C@H](O)[C@H]1O[C@@H]1OC[C@@H](O)[C@H](O)[C@H]1O` [Deapioplatycodin D], for which the “OC43 Inhibition rate” value was found to be 0%. On the same count and under the same terms, to `O=C(O)CP(=O)(O)O` [Phosphonoacetic acid] belongs 4.8%; to `O=C(O[C@H](Cc1ccc(O)c(O)c1)C(=O)O)C1=Cc2cc(O)c(O)cc2[C@H](c2ccc(O)c(O)c2)[C@H]1C(=O)OC(Cc1ccc(O)c(O)c1)C(=O)O` (stereo in doubt) [Rabdosiin], -1%. Same read-out and setting: the figure for `COc1cc(-c2cc(=O)c3c(O)cc(O)cc3o2)ccc1O` [Chrysoeriol] is 0.5%; for `O=c1c2c(O)cc(O)cc2oc2c(O)ccc(O[C@@H]3O[C@H](CO)[C@@H](O)[C@H](O)[C@H]3O)c12` [Norswertianolin] it is -0.5%. With `Nc1ccccc1C(=O)C[C@@H](N)C(=O)O` [D-Kynurenine], the “OC43 Inhibition rate” value is recorded as -6.1%. As to `CCC(C)(O)C(=O)O` (centres unmarked) [2-Hydroxy-2-methylbutanoic acid], the “OC43 Inhibition rate” value is given as -0.4%. Take `COc1cc2c(cc1OC)C(Cc1ccc(O)cc1)N(C)CC2` (centres unmarked) [Armepavine]: the “OC43 Inhibition rate” value is recorded as -11.6%. As for `O=C(O)[C@H]1O[C@@H](Oc2cc(O)c3c(=O)cc(-c4ccccc4)oc3c2)[C@H](O)[C@@H](O)[C@@H]1O` [Chrysin-7-O-glucuronide], the “OC43 Inhibition rate” value came out at 0%.

As for `CCCC[C@H](N)C(=O)O` [L-Norleucine], the “OC43 Inhibition rate” value is -2.6%. On the same count and under the same terms, to `CCCCCCCCCCCCC/C=C/[C@@H](O)[C@@H](N)CO` [D-erythro-Sphingosine] belongs 4.3%; to `OC[C@H]1O[C@H](OC[C@H]2O[C@H](OC[C@H]3O[C@H](OC[C@H]4OC(O)[C@H](O)[C@@H](O)[C@@H]4O)[C@H](O)[C@@H](O)[C@@H]3O)[C@H](O)[C@@H](O)[C@@H]2O)[C@H](O)[C@@H](O)[C@@H]1O` (some centres unmarked) [Isomaltotetraose], -3.6%.

Take `CC(=O)OC(C)C(C)C(=O)OC[C@@]12[C@H]3C[C@]4(C)C(=CC[C@@H]5[C@@]6(C)CC[C@H](O[C@@H]7O[C@H](C(=O)O)[C@@H](O[C@@H]8O[C@H](CO)[C@@H](O)[C@H](O)[C@H]8O)[C@H](O)[C@H]7O[C@@H]7OC[C@@H](O)[C@H](O)[C@H]7O)[C@@](C)(CO)[C@@H]6CC[C@]54C)[C@@H]1CC(C)(C)[C@H](O3)[C@@H]2O` (some centres unmarked) [Sodium aescinate]: the “OC43 Inhibition rate” value turned out to be 6.6%.

`COc1ccccc1C=O` [2-Methoxybenzaldehyde]: the “OC43 Inhibition rate” value was 0.1%. Still for that read-out and setting: to `C[C@@H]1O[C@@H](O[C@@H]2[C@@H](O)[C@H](O)[C@@H](CO)O[C@H]2c2c(O)cc(O)c3c(=O)cc(-c4ccc(O)cc4)oc23)[C@H](O)[C@H](O)[C@H]1O` [Vitexin-2"-O-rhamnoside] belongs 0%. As for `NCCCCNCCCN` [Spermidine (hydrochloride)], under “OC43 Inhibition rate, 24 h”, the “OC43 Inhibition rate” value is reported as -3.4%. For the compound `CC(O)CN` (centres unmarked) [1-Aminopropan-2-ol], the “OC43 Inhibition rate” value is 0.4%.

Turning to `COc1cc2c(cc1O)CCN[C@]21CS[C@@H]2c3c(OC(C)=O)c(C)c4c(c3[C@H](COC1=O)N1[C@@H]2[C@H]2c3c(cc(C)c(OC)c3O)C[C@@H]([C@@H]1C#N)N2C)OCO4` [Ecteinascidin 770], the “OC43 Inhibition rate” value is listed as 9.7%. On to `O=c1cc(-c2ccccc2)oc2cccc(O)c12` [5-Hydroxyflavone], for which the “OC43 Inhibition rate” value came out at 10.7%. Take `CC(C)(O)[C@H]1Cc2cc3ccc(=O)oc3cc2O1` [Nodakenetin]: the “OC43 Inhibition rate” value turned out to be 4%. The same measure, in the same setting: the figure for `NC1CCN(c2nc3c(cc2F)c(=O)c(C(=O)O)cn3-c2ccc(F)cc2F)C1` (centres unmarked) [Tosufloxacin (tosylate hydrate)] is 58.8%; for `COc1cc(-c2cc(=O)c3c(O)c(OC)c(O)cc3o2)ccc1O` [Jaceosidin] it is -0.3%. On the same count and under the same terms, to `O=S(=O)(O)CCO` [Isethionic acid sodium salt] belongs -0.5%.

For the compound `C[C@@H](O)[C@@H](C)O` [(2R,3R)-Butane-2,3-diol], the “OC43 Inhibition rate” value (OC43 Inhibition rate, 24 h) was 2.5%. For the compound `Oc1ccc2c(c1)OC[C@H]1c3cc4c(cc3O[C@@H]21)OCO4` [(-)-Maackiain], where the note is “OC43 Inhibition rate, 24 h”, the “OC43 Inhibition rate” value was found to be 2.8%. In the case of `COc1c2ccoc2c(OCC(O)C(C)(C)O)c2oc(=O)ccc12` (racemic) [(Rac)-Byakangelicin], the “OC43 Inhibition rate” value is -2.4%. Consider `Nc1ncnc2c1ncn2[C@@H]1O[C@H](COP(=O)(O)O)[C@@H](O)[C@H]1O` [Adenosine 5'-monophosphate monohydrate], for which, under “OC43 Inhibition rate, 24 h”, the “OC43 Inhibition rate” value is listed as -3.1%. With `COc1ccc(C2COc3cc(O)ccc3C2)c(O)c1OC` (centres unmarked) [Isomucronulatol], the “OC43 Inhibition rate” value is listed as 16.2%.
